{
  "source": "patent US10030064B2",
  "about": "“Mammalian cell culture processes for protein production” (priority 2009, dated 2018)",
  "test_system": "CHO DG44 cell line expressing the fusion glycoprotein",
  "experiment": "Shake flask CHO culture: total sialic acid content, N-linked and O-linked oligosaccharide profile of the secreted fusion glycoprotein",
  "assay_type": "cell-based, Chinese hamster",
  "conditions": "glucocorticoid 0.1 to 10 μM added day 2, 10-day culture; normalized value",
  "procedure": "The CHO cell line used in this study was originally subcloned from DG44 parental cells and cultured in a proprietary protein-free growth medium.\nThe experiments were carried out in 250-mL shake flasks (VWR international) with starting volumes of 100 mL and initial cell densities of 6×10^5 cells/mL. The cultures were placed on a shaker platform (VWR international) at 150 rpm and maintained at 37° C. and 6% CO2 for ten days. The cultures were sampled daily and the pH was adjusted as needed using 1M sodium carbonate and fed with glucose and glutamine every two days in order to maintain them at adequate levels. Cell density and viability were measured offline using a Cedex automated cell counter (Innovatis AG, Bielefeld, Germany). Culture pH and concentrations for glucose and glutamine were measured off-line using a Bioprofile Analyzer 400 (Nova Biomedical Corporation, Waltham, Mass.).\nThe sialic acid to recombinant protein molar ratio was calculated by determining the sialic acid and recombinant protein concentrations. […] The protein concentrations were determined by UV absorbance at 280 nm. […]\nThis study was performed in duplicate 250-mL shake flasks using the culture conditions as described above. […] Cultures were harvested on day 10, and the fusion protein was purified using a protein A column and analyzed for total sialic acid content, O-linked sialic acid content and the N-linked profile.",
  "note": "For at least one compound, name, drawing or mass did not settle the structure.",
  "data": [
    {"smiles": "C[C@@H]1C[C@H]2[C@@H]3CCC4=CC(=O)C=C[C@]4(C)[C@@]3(F)[C@@H](O)C[C@]2(C)[C@@]1(O)C(=O)CO", "note": "[DEX, dexamethasone]", "values": [
      {"measurement": "normalized N-linked sialylated species fraction", "value": "85.6±1.6 to 88.8±0.9"},
      {"measurement": "normalized total sialic acid content", "value": "12.4±0.4 to 14.0±0.5"}
    ]}
  ]
}
